According to PubChem BioAssay AID720706 (Broad Institute, 2013):
The other results are listed elsewhere or left out.

experiment: reduced GFP signal of wild-type E. coli, primary screen, bacterial rRNA inhibitor project, GFP/RFP fluorescence, OD600, single point (AID 720706); details: E. coli WT GFP vs humanized-ribosome RFP mutants, 24 h; OD600 change: measured here: OD600 growth, DMSO median 0, no signal -100; RFP signal change: measured here: RFP humanized mutant strains, DMSO median 0, no signal -100, concentration not given here

Compound	OD600 change [%]	RFP signal change [%]
COC(=O)C1(C)COP(=O)(N2CCCCCC2)OC1 (centres undefined)	8.37	-3.34
CC(C)c1ccc(OP(=O)(Nc2ccccn2)Oc2ccccc2F)cc1 (centres undefined)	-4.04	4.91
COc1ccccc1OP(C)(=O)Nc1cc(Cl)ccc1C (centres undefined)	-13.4	-4.36
CC(C)NC(=O)NP(=O)(Oc1ccccc1)Oc1ccccc1	6.75	0.235
O=C(OC1CN2CCC1CC2)c1cccc2[nH]cnc12 (centres undefined)	9.39	1.15
Cc1cc(C)cc(OP(C)(N)=O)c1 (centres undefined)	6.66	2.87
O=[N+]([O-])c1cc([N+](=O)[O-])c(Nc2cccnc2)c([N+](=O)[O-])c1	6.94	-16
C[As](=O)(O)c1cccc(C(=O)O)c1	11	-1.27
O=[As](O)(c1ccc(O)cc1)c1ccccc1O	3.67	-0.278
O=[N+]([O-])c1ccc(-c2cc([N+](=O)[O-])c(O)c([N+](=O)[O-])c2)cc1	-78.6	-20.8
COc1cc(C(=O)NCC2(N3CCOCC3)CCCCC2)ccc1OCC(C)C	-13.2	-0.427
[N-]=[N+]=NC1CCCCC1NC(=O)c1cc([N+](=O)[O-])cc([N+](=O)[O-])c1 (centres undefined)	12.2	11.9
Cc1ccc(OP(=O)(Nc2ccc([N+](=O)[O-])cn2)Oc2ccc(C)cc2)cc1	14.6	4.62
CC(C)(C)c1ccc(OP(C)(=O)Nc2ccc(SC(F)(F)F)cc2)cc1 (centres undefined)	-10.2	-0.615
Cc1cccc(C)c1OP(C)(N)=O (centres undefined)	6.3	1.21
O=[N+]([O-])c1ccc2c(c1)C=Nc1ccccc1O2	-21.4	16.5
Cc1ccc2nc3c(c(C)c2c1)CC(C(Cl)Cl)S3 (centres undefined)	0.875	0.513
COc1ccc(N/C(=N/P(=O)(N2CCOCC2)N2CCOCC2)N2CCOCC2)cc1	9.1	1.66
COc1ccccc1-c1ccccn1.O=[N+]([O-])c1cc([N+](=O)[O-])c(O)c([N+](=O)[O-])c1	4.27	-1.13
Cc1c2c(nc3ccccc13)SC(C(Cl)Cl)C2 (centres undefined)	-71.9	-17.3
Cc1cc(=O)[nH]c(N[N+](=O)[O-])n1	1.48	-2.5

Compound	OD600 change [%]	RFP signal change [%]
CCN(CC)CCCOC(=O)C(O)(c1ccccc1)c1ccccc1	4.96	-3.75
O=P1(N(CCCl)CCCl)OCCCN1CCCl (centres undefined)	13	3.56
O=P1(N(CCCl)CCCl)Nc2ccccc2N1	12	1.93
COc1ccc2nc(NP(=O)(c3ccccc3)c3ccccc3)sc2c1	-4.12	2.13
COc1cc(I)ccc1[As](=O)(O)O	7.03	7.11
O=C(OC1CN2CCC1CC2)c1cccc([N+](=O)[O-])c1 (centres undefined)	20.4	-1.4
CCOC(=O)c1ccc(NC(=O)C(C)(CCl)SC)cc1 (centres undefined)	1.36	1.13
CCOC(=O)c1ccc(NP(C)(=O)Oc2ccc(OC)cc2)cc1 (centres undefined)	5.44	2.58
CP(=O)(Nc1ccccn1)Oc1ccc(Cl)cc1 (centres undefined)	9.36	-4.2
COP1(=S)c2c(C)nn(CCC#N)c2N=C(c2ccc(F)cc2)N1C (centres undefined)	-0.035	0.426
CP(=O)(Nc1ccc(SC(F)(F)F)cc1)Oc1ccc(Cl)cc1 (centres undefined)	-56.9	-12.9
CP(=O)(Oc1ccccc1)OC(c1ccccc1)C(F)(F)F (centres undefined)	4.76	-0.415
COC(=O)C1(C)COP(=O)(N2CCCC2)OC1 (centres undefined)	-4.9	1.65
CP(=O)(NC(=O)Nc1ccccc1)Oc1ccccc1 (centres undefined)	-1.15	0.37
O=C(Nc1ccncc1[N+](=O)[O-])c1ccc([N+](=O)[O-])cc1[N+](=O)[O-]	8.11	7.1
CCOC(=O)Nc1cccc([As](=O)(O)O)c1	34.1	3.08
O=P(Nc1ccccn1)(c1cccc2ccccc12)c1cccc2ccccc12	21.1	-0.4
Cc1cc(SC(NC=O)C(Cl)(Cl)Cl)ncn1 (centres undefined)	8.16	-1.08
COc1ccccc1OP(C)(=O)Nc1ccccc1 (centres undefined)	17.3	5.49
CP(=O)(Nc1ccccc1Br)Oc1ccccc1 (centres undefined)	3.04	3.46
O=[N+]([O-])c1ccc(Nc2ccc(Oc3ccc([N+](=O)[O-])cc3[N+](=O)[O-])cc2)c([N+](=O)[O-])c1	6.55	2.02

Compound	OD600 change [%]	RFP signal change [%]
O=C(O)C(=O)c1ccc(N(CCCl)CCCl)cc1.c1ccc(Nc2ccccc2)cc1	-4.99	-1.73
CCOC(=O)Nc1ccc([As](=O)(O)O)c(O)c1	14.5	7.12
CC1CCNP(=O)(N(CCCl)CCCl)O1 (centres undefined)	9.49	1.17
COP(=O)(OC)N1CC1c1ccccc1 (centres undefined)	7.99	2.32
CCCCOc1ccc(C(=O)NCC2(N3CCCCC3)CCCCC2)cc1OC	4.91	-0.3
CN1CCCCC1COC(=O)C1(O)c2ccccc2CCc2ccccc21 (centres undefined)	4.17	-6.04
CCCOc1ccc(NP(C)(=O)Oc2ccc(Cl)cc2)cc1 (centres undefined)	-36.7	-0.916
Nc1cccc([As](=O)(O)c2ccccc2)c1	9.75	0.37
O=[As](O)(c1cccs1)c1cccs1	8.73	-0.401
NS(=O)(=O)c1cccc(NC(=O)COC(=O)C(O)(c2ccccc2)c2ccccc2)c1	-3.35	-2.33
CC1CCC(C(C)C)C(OP(=O)(Nc2ccccn2)c2ccccc2)C1 (centres undefined)	-60.4	-18.1
Cc1ccc(C(=O)OC2CN3CCC2CC3)cc1 (centres undefined)	22.5	2.67
CN(C)C1(CNC(=O)c2ccc(S(C)(=O)=O)cc2)CCCCC1	3.59	3.31
O=[N+]([O-])c1cc([N+](=O)[O-])c(Nc2nnnn2CCO)c([N+](=O)[O-])c1	-0.554	-4.45
CCOC(=O)C(CC)C1=NC(C)(C)Cc2ccccc21.O=[N+]([O-])c1cc([N+](=O)[O-])c(O)c([N+](=O)[O-])c1 (centres undefined)	-4.25	-8.34
O=C(/C=C/c1ccccc1)OC1CN2CCC1CC2 (centres undefined)	3.66	-0.0369
CCCC1OP(=O)(Nc2ccccc2)OCC1CC (centres undefined)	9.55	4.14
COc1ccccc1CNC(=O)COC(=O)C(O)(c1ccccc1)c1ccccc1	-3.57	-1.77
Cc1ccc(S(=O)(=O)N(CCCN)CCCc2c(C)nc(N)[nH]c2=O)cc1.O=[N+]([O-])c1cc([N+](=O)[O-])c(O)c([N+](=O)[O-])c1	4.38	-3.81
CN(C(=O)Cc1ccc(Cl)c(Cl)c1)[C@@H]1CCCC[C@H]1N1CCCC1	-2.53	1.92
